Test results from the supplement of paper PMC8728848.
The other results are listed elsewhere or left out.

Tests used:
Experiment in all cases: glycan array binding signal (z-score within array); higher = stronger binding
Settings in all cases: glycan notation: IUPAC condensed, linker removed
[1] = target: Man(a1-2)Man(a1-3)[Man(a1-6)]Man(a1-6)[Man(a1-2)Man(a1-3)]Man(b1-4)GlcNAc(b1-4)GlcNAc
Outline: (§1)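 Arrays were curated from the Consortium for Functional Glycomics database, 3228 in total, and kept only where the protein sequence was available. Binding is expressed as a within-array Z-score. This score was averaged across arrays of the same protein sequence at different concentrations or buffers and across linkers, and negative values can be read as non-binding.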

[2] = target: Man(a1-2)Man(a1-6)[Man(a1-3)]Man(a1-6)[Man(a1-2)Man(a1-2)Man(a1-3)]Man
Outline: as §1

[3] = target: Man(a1-2)Man(a1-6)[Man(a1-3)]Man(a1-6)[Man(a1-2)Man(a1-2)Man(a1-3)]Man(b1-4)GlcNAc(b1-4)GlcNAc
Outline: as §1

Man(a1-3)[Man(a1-6)]Man = target: Man(a1-3)[Man(a1-6)]Man
Outline: as §1

[4] = target: Man(a1-3)[Man(a1-6)]Man(a1-6)[Man(a1-2)Man(a1-3)]Man(b1-4)GlcNAc(b1-4)GlcNAc
Outline: as §1

[5] = target: Man(a1-3)[Man(a1-6)]Man(a1-6)[Man(a1-3)]Man
Outline: as §1

[6] = target: Man(a1-3)[Man(a1-6)]Man(a1-6)[Man(a1-3)]Man(b1-4)GlcNAc(b1-4)GlcNAc
Outline: as §1

[7] = target: Man(a1-3)[Man(a1-6)]Man(b1-4)GlcNAc(b1-4)GlcNAc
Outline: as §1

[8] = target: Man(a1-3)[Man(a1-6)]Man(b1-4)GlcNAc(b1-4)[Fuc(a1-6)]GlcNAc
Outline: as §1

Man(a1-6)Man = target: Man(a1-6)Man
Outline: as §1

Man(b1-4)GlcNAc = target: Man(b1-4)GlcNAc
Outline: as §1

MurNAc(b1-4)GlcNAc = target: MurNAc(b1-4)GlcNAc
Outline: as §1

Neu5Ac(a2-3)Gal = target: Neu5Ac(a2-3)Gal
Outline: as §1

[9] = target: Neu5Ac(a2-3)Gal(b1-3)GalNAc
Outline: as §1

[10] = target: Neu5Ac(a2-3)Gal(b1-3)GalNAc(b1-3)Gal(a1-4)Gal(b1-4)Glc
Outline: as §1

[11] = target: Neu5Ac(a2-3)Gal(b1-3)GalNAc(b1-4)Gal(b1-4)Glc
Outline: as §1

[12] = target: Neu5Ac(a2-3)Gal(b1-3)GalNAc(b1-4)[Neu5Ac(a2-3)]Gal(b1-4)Glc
Outline: as §1

[13] = target: Neu5Ac(a2-3)Gal(b1-3)GalNAc(b1-4)[Neu5Ac(a2-8)Neu5Ac(a2-3)]Gal(b1-4)Glc
Outline: as §1

[14] = target: Neu5Ac(a2-3)Gal(b1-3)GalNAc6S
Outline: as §1

[15] = target: Neu5Ac(a2-3)Gal(b1-3)GlcNAc
Outline: as §1

[16] = target: Neu5Ac(a2-3)Gal(b1-3)GlcNAc(b1-2)Man
Outline: as §1

[17] = target: Neu5Ac(a2-3)Gal(b1-3)GlcNAc(b1-2)Man(a1-3)[GlcNAc(b1-4)][Neu5Ac(a2-3)Gal(b1-3)GlcNAc(b1-2)Man(a1-6)]Man(b1-4)GlcNAc(b1-4)GlcNAc
Outline: as §1

[18] = target: Neu5Ac(a2-3)Gal(b1-3)GlcNAc(b1-2)Man(a1-3)[Neu5Ac(a2-3)Gal(b1-3)GlcNAc(b1-2)Man(a1-6)]Man(b1-4)GlcNAc(b1-4)GlcNAc
Outline: as §1

[19] = target: Neu5Ac(a2-3)Gal(b1-3)GlcNAc(b1-2)[Neu5Ac(a2-3)Gal(b1-3)GlcNAc(b1-4)]Man(a1-6)[Neu5Ac(a2-3)Gal(b1-3)GlcNAc(b1-2)Man(a1-3)]Man(b1-4)GlcNAc(b1-4)GlcNAc
Outline: as §1

[20] = target: Neu5Ac(a2-3)Gal(b1-3)GlcNAc(b1-3)Gal(b1-3)GlcNAc
Outline: as §1

[21] = target: Neu5Ac(a2-3)Gal(b1-3)GlcNAc(b1-3)Gal(b1-4)GlcNAc
Outline: as §1

[22] = target: Neu5Ac(a2-3)Gal(b1-3)GlcNAc(b1-3)GalNAc
Outline: as §1

[23] = target: Neu5Ac(a2-3)Gal(b1-3)GlcNAc(b1-6)GalNAc
Outline: as §1

[24] = target: Neu5Ac(a2-3)Gal(b1-3)GlcNAc6S
Outline: as §1

[25] = target: Neu5Ac(a2-3)Gal(b1-3)[Fuc(a1-4)]GlcNAc
Outline: as §1

[26] = target: Neu5Ac(a2-3)Gal(b1-3)[Fuc(a1-4)]GlcNAc(b1-3)Gal(b1-3)[Fuc(a1-4)]GlcNAc
Outline: as §1

[27] = target: Neu5Ac(a2-3)Gal(b1-3)[Fuc(a1-4)]GlcNAc(b1-3)Gal(b1-4)[Fuc(a1-3)]GlcNAc
Outline: as §1

[28] = target: Neu5Ac(a2-3)Gal(b1-3)[GlcNAc(b1-6)]GalNAc
Outline: as §1

[29] = target: Neu5Ac(a2-3)Gal(b1-3)[Neu5Ac(a2-3)Gal(b1-4)]GlcNAc
Outline: as §1

[30] = target: Neu5Ac(a2-3)Gal(b1-3)[Neu5Ac(a2-6)]GalNAc
Outline: as §1

[31] = target: Neu5Ac(a2-3)Gal(b1-3)[Neu5Ac(a2-6)]GlcNAc(b1-3)[Fuc(a1-3)[Gal(b1-4)]GlcNAc(b1-6)]Gal(b1-4)Glc
Outline: as §1

[32] = target: Neu5Ac(a2-3)Gal(b1-3)]Neu5Ac(a2-3)Gal(b1-4)]GlcNAc
Outline: as §1

Neu5Ac(a2-3)Gal(b1-4)Glc = target: Neu5Ac(a2-3)Gal(b1-4)Glc
Outline: as §1

[33] = target: Neu5Ac(a2-3)Gal(b1-4)GlcNAc
Outline: as §1

[34] = target: Neu5Ac(a2-3)Gal(b1-4)GlcNAc(b1-2)Man
Outline: as §1

[35] = target: Neu5Ac(a2-3)Gal(b1-4)GlcNAc(b1-2)Man(a1-3)[GlcNAc(b1-2)Man(b1-4)GlcNAc(b1-2)Man(a1-6)]Man(b1-4)GlcNAc(b1-4)GlcNAc
Outline: as §1

[36] = target: Neu5Ac(a2-3)Gal(b1-4)GlcNAc(b1-2)Man(a1-3)[GlcNAc(b1-4)][Neu5Ac(a2-3)Gal(b1-4)GlcNAc(b1-2)Man(a1-6)]Man(b1-4)GlcNAc(b1-4)GlcNAc
Outline: as §1

[37] = target: Neu5Ac(a2-3)Gal(b1-4)GlcNAc(b1-2)Man(a1-3)[Neu5Ac(a2-3)Gal(b1-4)GlcNAc(b1-2)Man(a1-6)]Man(b1-4)GlcNAc(b1-4)GlcNAc
Outline: as §1

[38] = target: Neu5Ac(a2-3)Gal(b1-4)GlcNAc(b1-2)Man(a1-3)[Neu5Ac(a2-3)Gal(b1-4)GlcNAc(b1-2)Man(a1-6)]Man(b1-4)GlcNAc(b1-4)[Fuc(a1-6)]GlcNAc
Outline: as §1

[39] = target: Neu5Ac(a2-3)Gal(b1-4)GlcNAc(b1-2)Man(a1-3)[Neu5Ac(a2-6)Gal(b1-4)GlcNAc(b1-2)Man(a1-6)]Man(b1-4)GlcNAc(b1-4)GlcNAc
Outline: as §1

[40] = target: Neu5Ac(a2-3)Gal(b1-4)GlcNAc(b1-2)[Neu5Ac(a2-3)Gal(b1-4)GlcNAc(b1-4)]Man(a1-3)[GlcNAc(b1-4)][Neu5Ac(a2-3)Gal(b1-4)GlcNAc(b1-2)[Neu5Ac(a2-3)Gal(b1-4)GlcNAc(b1-6)]Man(a1-6)]Man(b1-4)GlcNAc(b1-4)GlcNAc
Outline: as §1

[41] = target: Neu5Ac(a2-3)Gal(b1-4)GlcNAc(b1-2)[Neu5Ac(a2-3)Gal(b1-4)GlcNAc(b1-4)]Man(a1-3)[GlcNAc(b1-4)][Neu5Ac(a2-3)Gal(b1-4)GlcNAc(b1-4)Man(a1-6)]Man(b1-4)GlcNAc(b1-4)GlcNAc
Outline: as §1

[42] = target: Neu5Ac(a2-3)Gal(b1-4)GlcNAc(b1-2)[Neu5Ac(a2-3)Gal(b1-4)GlcNAc(b1-6)]Man(a1-6)[Neu5Ac(a2-3)Gal(b1-4)GlcNAc(b1-2)Man(a1-3)][GlcNAc(b1-4)]Man(b1-4)GlcNAc(b1-4)GlcNAc
Outline: as §1

[43] = target: Neu5Ac(a2-3)Gal(b1-4)GlcNAc(b1-3)Gal
Outline: as §1

[44] = target: Neu5Ac(a2-3)Gal(b1-4)GlcNAc(b1-3)Gal(b1-3)GlcNAc
Outline: as §1

[45] = target: Neu5Ac(a2-3)Gal(b1-4)GlcNAc(b1-3)Gal(b1-4)GlcNAc
Outline: as §1

B1: NK2 (Sus scrofa) (peptide)
chain: KILRGVCKKIMRTFLRRISKDILTGKK
[1]
  glycan array binding signal (z-score): -0.846
[2]
  glycan array binding signal (z-score): -0.174
[3]
  glycan array binding signal (z-score): 0.793
Man(a1-3)[Man(a1-6)]Man
  glycan array binding signal (z-score): 0.504
[4]
  glycan array binding signal (z-score): 0.661
[5]
  glycan array binding signal (z-score): -0.864
[6]
  glycan array binding signal (z-score): 0.793
[7]
  glycan array binding signal (z-score): -0.398
[8]
  glycan array binding signal (z-score): -0.122
Man(a1-6)Man
  glycan array binding signal (z-score): 0.253
Man(b1-4)GlcNAc
  glycan array binding signal (z-score): -0.585
MurNAc(b1-4)GlcNAc
  glycan array binding signal (z-score): -0.219
Neu5Ac(a2-3)Gal
  glycan array binding signal (z-score): -0.22
[9]
  glycan array binding signal (z-score): -0.076
[10]
  glycan array binding signal (z-score): -0.526
[11]
  glycan array binding signal (z-score): -0.554
[12]
  glycan array binding signal (z-score): -0.1
[13]
  glycan array binding signal (z-score): -0.346
[14]
  glycan array binding signal (z-score): 0.426
[15]
  glycan array binding signal (z-score): 0.313
[16]
  glycan array binding signal (z-score): 0.883
[17]
  glycan array binding signal (z-score): -0.374
[18]
  glycan array binding signal (z-score): -1.53
[19]
  glycan array binding signal (z-score): 0.668
[20]
  glycan array binding signal (z-score): 0.2
[21]
  glycan array binding signal (z-score): 0.471
[22]
  glycan array binding signal (z-score): 1.02
[23]
  glycan array binding signal (z-score): 1.26
[24]
  glycan array binding signal (z-score): 0.581
[25]
  glycan array binding signal (z-score): -0.121
[26]
  glycan array binding signal (z-score): -0.148
[27]
  glycan array binding signal (z-score): -0.135
[28]
  glycan array binding signal (z-score): 1.32
[29]
  glycan array binding signal (z-score): -0.225
[30]
  glycan array binding signal (z-score): -0.067
[31]
  glycan array binding signal (z-score): -0.929
[32]
  glycan array binding signal (z-score): 0.144
Neu5Ac(a2-3)Gal(b1-4)Glc
  glycan array binding signal (z-score): -0.55
[33]
  glycan array binding signal (z-score): -0.275
[34]
  glycan array binding signal (z-score): 1.2
[35]
  glycan array binding signal (z-score): -0.411
[36]
  glycan array binding signal (z-score): 0.23
[37]
  glycan array binding signal (z-score): 0.832
[38]
  glycan array binding signal (z-score): 0.413
[39]
  glycan array binding signal (z-score): -0.878
[40]
  glycan array binding signal (z-score): 0.273
[41]
  glycan array binding signal (z-score): 0.289
[42]
  glycan array binding signal (z-score): 0.54
[43]
  glycan array binding signal (z-score): -0.06
[44]
  glycan array binding signal (z-score): -0.837
[45]
  glycan array binding signal (z-score): -0.624
